# Publication PMC10564455
# Protein sequences, listed by entry. Tags and fused reporters are not part of them. Residues count along the entry.
# UniProt P13816, residues 26-678: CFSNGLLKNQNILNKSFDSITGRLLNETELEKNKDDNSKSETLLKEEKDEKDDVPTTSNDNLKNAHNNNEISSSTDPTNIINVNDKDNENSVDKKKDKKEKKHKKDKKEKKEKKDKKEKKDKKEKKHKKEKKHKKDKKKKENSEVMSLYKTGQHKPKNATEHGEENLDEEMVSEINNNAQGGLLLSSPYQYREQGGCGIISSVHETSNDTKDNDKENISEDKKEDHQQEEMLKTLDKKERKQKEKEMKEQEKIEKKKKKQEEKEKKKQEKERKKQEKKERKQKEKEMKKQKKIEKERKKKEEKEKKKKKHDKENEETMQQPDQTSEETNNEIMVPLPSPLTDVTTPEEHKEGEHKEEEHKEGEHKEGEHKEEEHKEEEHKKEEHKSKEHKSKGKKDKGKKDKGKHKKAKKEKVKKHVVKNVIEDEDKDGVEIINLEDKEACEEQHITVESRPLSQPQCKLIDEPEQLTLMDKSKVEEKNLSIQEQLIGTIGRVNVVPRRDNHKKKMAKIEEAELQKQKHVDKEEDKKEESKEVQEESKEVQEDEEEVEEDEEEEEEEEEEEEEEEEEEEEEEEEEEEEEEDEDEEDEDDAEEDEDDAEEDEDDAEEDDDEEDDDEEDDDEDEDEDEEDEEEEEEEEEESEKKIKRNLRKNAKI
# Like-named read-outs stand apart in the source and are kept apart here. These are yes or no findings as the source states them, for the method shown. Binding seen in cells or lysates may run through a third protein. Here binding means that the protein was enriched with, or labelled near, the bait; the list need not be complete.
# B1: PF3D7_0702500 (protein, UniProt Q8IC42 1-253)
# chain: MAYPLLEDDLRSIRVAFGTCPGNSTMQFGERFWQGFFFGVIIFFVLSKYIRSYKKRKGMRILKSSSVTKGRLYRGTVFDEDDNVDGHHKKTKAHGLFEEIEKRNGFDLNDDTTNSNNLGEGTHSAVHNLDGQKESQLYKNNSDGSTENHLSGSNSDGRNSSQHSVGSHSVSSQEHKKEHSTHDLPAGRNYSLGNLSTGTTSQGSTSSRHYSLGGQPSSSGRSFSGSKYNTSNLASSSTTESSVSGLNTNEAHV
# Columns and labels:
# Experiment in all cases: proximity labelling
# [1] = biological target: KAHRP-TurboID (P. falciparum) (UniProt Q9TY99)
# [2] = biological target: PTP4-TurboID (P. falciparum)
# [3] = biological target: KAHRP-TurboID (P. falciparum) (UniProt Q9TY99); remark: listed apart in the source
Molecule,binding [1],binding [2],binding [3]
GARP (from UniProt P13816 26-678),binds,–,–
B1,–,binds,binds
